Results are given in words; binding and its absence hold for the method and conditions named. Some results given as binding are weak or reduced against the parent protein; the word gives no strength. Blank lines part the entries; values can stand above or below the binder they belong to.
Experiments:
Test in all cases: non-reducing SDS-PAGE; outer membrane fractions of E. coli with the autotransporter fusion proteins, sample buffer without dithiothreitol; the dimer band disappeared under reducing conditions (data not shown)
[1] = target: library peptide B1 displayed on E. coli UT5600(DE3) by autodisplay (plasmid pCR31)
[2] = target: library peptide B2 displayed on E. coli UT5600(DE3) by autodisplay (plasmid pCR33)
[3] = target: library peptide B4 displayed on E. coli UT5600(DE3) by autodisplay (plasmid pCR36)

binding [1]: binds
Binder: KHTKGPTAYCPL [library peptide B1 displayed on E. coli UT5600(DE3) by autodisplay (plasmid pCR31)]

binding [2]: binds
Binder: DCRGLIVMIKLH [library peptide B2 displayed on E. coli UT5600(DE3) by autodisplay (plasmid pCR33)]

binding [3]: binds
Binder: PCPAPRAPKLSI [library peptide B4 displayed on E. coli UT5600(DE3) by autodisplay (plasmid pCR36)]
